Laboratory results: PubChem BioAssay AID1259254 (NCATS, 2017)
In all, the deposit lists about 59,000 reagents; this is a random part of them. Of all reagents, about 1,550 (2.6%) were called active. 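G2 share is only a proxy for re-replication; each gene was hit by three separate siRNAs, and active genes were retested.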 A number with no mark means an inactive call. The numbers tell different reagents against one gene apart. Further read-outs or replicates are left out here. Not stated in the record: the amount of reagent.

- Assay: 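Genome-wide screen for genes that prevent DNA re-replication in cancer cells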 (primary screen)
- Cells: human HCT116 colorectal cancer cells
- Reagent: single siRNA against human genes
- Duration: 3 days
- Measured: 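Imaged Hoechst DNA stain sorts each cell into a cycle phase by DNA amount; per plate, G2 fraction set to 0% for non-targeting and 100% for GMNN siRNA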
- Reading the numbers: G2 robust z-score and G2 cells, % of GMNN control: higher = more G2 cells, more excess DNA replication
- Hit rule: 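An siRNA counts as active if its G2 robust z-score lies at least 5 MADs above the screen median; here such calls match roughly 38% of GMNN control or more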

| gene knocked down | siRNA no. | G2 robust z-score | G2 cells, % of GMNN control |
| --- | --- | --- | --- |
| HIBADH (GeneID 11112) | 1 | 3.53 | 27.8 |
| HIBADH (GeneID 11112) | 2 | -0.889 | -3.29 |
| HIBADH (GeneID 11112) | 3 | -0.484 | -0.436 |
| MLPH (GeneID 79083) | 1 | -0.767 | -2.43 |
| MLPH (GeneID 79083) | 2 | -0.14 | 1.98 |
| MLPH (GeneID 79083) | 3 | -0.495 | -0.517 |
| DBP (GeneID 1628) | 1 | 0.25 | 4.73 |
| DBP (GeneID 1628) | 2 | 1.26 | 11.9 |
| DBP (GeneID 1628) | 3 | 0.881 | 9.17 |
| GLUD1 (GeneID 2746) | 1 | -0.15 | 1.91 |
| GLUD1 (GeneID 2746) | 2 | -0.305 | 0.823 |
| GLUD1 (GeneID 2746) | 3 | -0.0602 | 2.54 |
| LEMD1 (GeneID 93273) | 1 | 7.86 (active) | 58.3 |
| LEMD1 (GeneID 93273) | 2 | 1.55 | 13.9 |
| LEMD1 (GeneID 93273) | 3 | 0.141 | 3.96 |
| CEP41 (GeneID 95681) | 1 | -0.0147 | 2.86 |
| CEP41 (GeneID 95681) | 2 | -0.363 | 0.413 |
| CEP41 (GeneID 95681) | 3 | 0.98 | 9.86 |
| KCNC3 (GeneID 3748) | 1 | -0.717 | -2.08 |
| KCNC3 (GeneID 3748) | 2 | -0.671 | -1.75 |
| KCNC3 (GeneID 3748) | 3 | -1.02 | -4.24 |
| SLF2 (GeneID 55719) | 1 | 4.46 | 34.4 |
| SLF2 (GeneID 55719) | 2 | 0.94 | 9.58 |
| SLF2 (GeneID 55719) | 3 | 1.79 | 15.6 |
| RTRAF (GeneID 51637) | 1 | -0.262 | 1.12 |
| RTRAF (GeneID 51637) | 2 | -0.503 | -0.571 |
| RTRAF (GeneID 51637) | 3 | -0.172 | 1.76 |
| ELMOD3 (GeneID 84173) | 1 | -0.895 | -3.33 |
| ELMOD3 (GeneID 84173) | 2 | 1.83 | 15.8 |
| ELMOD3 (GeneID 84173) | 3 | -0.599 | -1.24 |

5 entries from above, reduced to “G2 cells, % of GMNN control”:
SLF2 (GeneID 55719) #3: 15.6
RTRAF (GeneID 51637) #1: 1.12
RTRAF (GeneID 51637) #2: -0.571
RTRAF (GeneID 51637) #3: 1.76
ELMOD3 (GeneID 84173) #1: -3.33
